Some of the results follow. The calls rarely recur for the same compound in another form.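 In K562 cells expressing nanoluciferase-fused kinases, luminescence was recorded at 4 h intervals between 2 and 18 h, normalized as percent of control with DMSO at 100% and a positive control at 0%. A significant (2 sigma) signal drop marks a time point as decreased. The authors' rule for a hit is not shown and takes in more than the number of time points.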
Columns and labels:
Assay in all cases: kinase-Nluc reporter destabilization hit call (1 = scored as downregulated) (binary); higher = compound decreases kinase abundance
Conditions in all cases: K562; 2-18 h
CDK7 = CDK7 (UniProt P50613)
CDK9 = CDK9 (UniProt P50750)
CHEK2 = CHEK2 (UniProt O96017)
CSF1R = CSF1R (UniProt P07333)
CSK = CSK (UniProt P41240)
CSNK1A1 = CSNK1A1 (UniProt P48729)
CSNK1D = CSNK1D (UniProt P48730)
DDR1 = DDR1 (UniProt Q08345)
DYRK1B = DYRK1B (UniProt Q9Y463)
DYRK2 = DYRK2 (UniProt Q92630)
EGFR = EGFR (UniProt P00533)
EGFR_G719S = EGFR_G719S (UniProt P00533)
EGFR_G719S_T790M = EGFR_G719S_T790M (UniProt P00533)
EGFR_L718V = EGFR_L718V (UniProt P00533)
EGFR_L858R = EGFR_L858R (UniProt P00533)
EGFR_L861Q = EGFR_L861Q (UniProt P00533)
EGFR_T790M = EGFR_T790M (UniProt P00533)
EPHA2 = EPHA2 (UniProt P29317)
ERBB3 = ERBB3 (UniProt P21860)
[1] = biological target: ERBB4_R711C (clone: ERBB4_mut) (UniProt Q15303)

The chains behind the UniProt entries cited, without tags or fusion partners. Where a name states a change or a piece, a line headed by the entry shows the natural chain unless it says otherwise.
UniProt P50613: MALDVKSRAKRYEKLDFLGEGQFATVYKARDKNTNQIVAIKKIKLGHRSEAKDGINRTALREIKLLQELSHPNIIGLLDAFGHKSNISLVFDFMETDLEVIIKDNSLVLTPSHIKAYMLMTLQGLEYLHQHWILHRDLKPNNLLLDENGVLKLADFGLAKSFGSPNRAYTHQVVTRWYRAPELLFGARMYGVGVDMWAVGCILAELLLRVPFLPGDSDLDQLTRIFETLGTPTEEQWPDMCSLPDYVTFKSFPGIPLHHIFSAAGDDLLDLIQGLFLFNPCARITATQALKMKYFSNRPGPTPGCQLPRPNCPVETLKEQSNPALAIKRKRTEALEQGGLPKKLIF
UniProt P50750, whole entry: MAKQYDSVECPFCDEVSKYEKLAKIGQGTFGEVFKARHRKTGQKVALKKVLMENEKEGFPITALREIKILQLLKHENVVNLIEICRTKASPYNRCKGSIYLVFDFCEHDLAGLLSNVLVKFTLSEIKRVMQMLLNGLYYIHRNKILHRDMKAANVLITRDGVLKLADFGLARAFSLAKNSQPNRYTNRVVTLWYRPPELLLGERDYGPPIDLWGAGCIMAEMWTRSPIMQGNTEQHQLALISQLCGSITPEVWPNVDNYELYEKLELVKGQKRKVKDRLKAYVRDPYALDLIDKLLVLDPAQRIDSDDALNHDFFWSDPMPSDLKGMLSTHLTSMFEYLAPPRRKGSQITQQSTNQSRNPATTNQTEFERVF
UniProt O96017, whole entry: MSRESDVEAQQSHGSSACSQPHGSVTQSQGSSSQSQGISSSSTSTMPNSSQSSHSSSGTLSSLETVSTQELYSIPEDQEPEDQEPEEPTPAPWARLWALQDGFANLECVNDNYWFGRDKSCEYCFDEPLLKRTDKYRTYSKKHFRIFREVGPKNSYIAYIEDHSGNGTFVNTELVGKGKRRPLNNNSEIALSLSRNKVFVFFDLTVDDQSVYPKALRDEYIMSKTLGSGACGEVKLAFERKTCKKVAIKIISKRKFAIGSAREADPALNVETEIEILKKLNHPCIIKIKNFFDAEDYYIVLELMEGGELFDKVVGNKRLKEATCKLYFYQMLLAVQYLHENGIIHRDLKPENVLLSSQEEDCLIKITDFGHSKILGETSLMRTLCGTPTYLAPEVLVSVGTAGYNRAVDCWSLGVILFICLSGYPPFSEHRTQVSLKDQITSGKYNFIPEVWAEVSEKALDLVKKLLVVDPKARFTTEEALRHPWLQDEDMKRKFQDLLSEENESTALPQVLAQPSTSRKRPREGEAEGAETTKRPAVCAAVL
UniProt P41240: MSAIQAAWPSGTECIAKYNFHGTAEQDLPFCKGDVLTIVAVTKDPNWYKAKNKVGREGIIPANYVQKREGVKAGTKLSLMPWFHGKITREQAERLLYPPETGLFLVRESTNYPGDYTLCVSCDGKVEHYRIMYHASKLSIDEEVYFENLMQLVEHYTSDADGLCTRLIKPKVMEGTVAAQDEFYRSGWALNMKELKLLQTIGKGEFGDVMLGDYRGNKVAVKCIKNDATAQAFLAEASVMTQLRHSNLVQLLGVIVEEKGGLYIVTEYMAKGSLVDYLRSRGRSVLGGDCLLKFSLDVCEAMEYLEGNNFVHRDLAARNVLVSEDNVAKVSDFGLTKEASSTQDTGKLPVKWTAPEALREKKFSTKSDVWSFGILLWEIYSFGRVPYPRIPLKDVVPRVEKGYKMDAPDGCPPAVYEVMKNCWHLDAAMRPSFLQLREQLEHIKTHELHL
UniProt P48729: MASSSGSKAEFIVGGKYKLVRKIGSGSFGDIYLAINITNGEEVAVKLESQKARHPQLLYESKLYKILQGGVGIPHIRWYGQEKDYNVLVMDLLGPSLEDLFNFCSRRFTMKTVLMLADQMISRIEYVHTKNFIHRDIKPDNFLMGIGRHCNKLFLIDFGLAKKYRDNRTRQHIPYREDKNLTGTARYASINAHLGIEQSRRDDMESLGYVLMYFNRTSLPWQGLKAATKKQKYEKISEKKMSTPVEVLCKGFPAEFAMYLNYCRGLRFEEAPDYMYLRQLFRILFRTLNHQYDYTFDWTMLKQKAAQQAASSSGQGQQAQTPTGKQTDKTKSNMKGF
UniProt P48730: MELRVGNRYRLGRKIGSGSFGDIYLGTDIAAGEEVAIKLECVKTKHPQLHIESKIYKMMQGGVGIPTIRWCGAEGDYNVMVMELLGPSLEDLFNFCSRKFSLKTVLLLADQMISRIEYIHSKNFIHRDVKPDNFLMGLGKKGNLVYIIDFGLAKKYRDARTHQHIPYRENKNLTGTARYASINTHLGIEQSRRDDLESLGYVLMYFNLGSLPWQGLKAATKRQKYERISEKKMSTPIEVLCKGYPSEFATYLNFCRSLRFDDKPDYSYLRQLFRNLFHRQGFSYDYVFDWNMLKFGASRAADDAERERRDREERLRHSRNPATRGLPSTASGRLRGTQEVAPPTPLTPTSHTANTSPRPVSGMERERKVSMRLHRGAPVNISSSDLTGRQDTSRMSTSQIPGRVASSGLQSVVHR
UniProt Q08345: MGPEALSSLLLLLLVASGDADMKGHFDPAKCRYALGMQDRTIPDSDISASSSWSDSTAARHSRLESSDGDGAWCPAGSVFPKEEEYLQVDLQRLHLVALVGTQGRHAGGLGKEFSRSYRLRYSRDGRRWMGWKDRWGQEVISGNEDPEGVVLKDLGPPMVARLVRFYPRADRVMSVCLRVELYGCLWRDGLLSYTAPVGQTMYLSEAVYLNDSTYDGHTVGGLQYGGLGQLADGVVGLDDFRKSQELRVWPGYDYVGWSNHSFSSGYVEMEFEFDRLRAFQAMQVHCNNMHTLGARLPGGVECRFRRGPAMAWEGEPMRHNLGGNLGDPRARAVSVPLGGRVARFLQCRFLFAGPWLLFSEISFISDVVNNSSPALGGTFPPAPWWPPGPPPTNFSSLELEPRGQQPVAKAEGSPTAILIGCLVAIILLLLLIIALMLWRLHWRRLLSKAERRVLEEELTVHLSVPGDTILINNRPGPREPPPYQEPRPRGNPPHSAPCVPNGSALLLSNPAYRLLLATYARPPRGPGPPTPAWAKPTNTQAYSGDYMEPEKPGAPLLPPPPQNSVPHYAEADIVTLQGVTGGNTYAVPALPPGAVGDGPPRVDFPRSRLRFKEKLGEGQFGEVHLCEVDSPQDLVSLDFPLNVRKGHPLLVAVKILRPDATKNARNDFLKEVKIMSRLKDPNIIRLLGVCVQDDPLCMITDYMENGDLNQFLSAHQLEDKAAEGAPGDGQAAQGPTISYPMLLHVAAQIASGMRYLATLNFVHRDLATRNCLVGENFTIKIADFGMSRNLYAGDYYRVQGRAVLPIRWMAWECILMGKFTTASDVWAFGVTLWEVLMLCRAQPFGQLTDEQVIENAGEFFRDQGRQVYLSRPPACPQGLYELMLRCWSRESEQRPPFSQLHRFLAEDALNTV
UniProt Q92630: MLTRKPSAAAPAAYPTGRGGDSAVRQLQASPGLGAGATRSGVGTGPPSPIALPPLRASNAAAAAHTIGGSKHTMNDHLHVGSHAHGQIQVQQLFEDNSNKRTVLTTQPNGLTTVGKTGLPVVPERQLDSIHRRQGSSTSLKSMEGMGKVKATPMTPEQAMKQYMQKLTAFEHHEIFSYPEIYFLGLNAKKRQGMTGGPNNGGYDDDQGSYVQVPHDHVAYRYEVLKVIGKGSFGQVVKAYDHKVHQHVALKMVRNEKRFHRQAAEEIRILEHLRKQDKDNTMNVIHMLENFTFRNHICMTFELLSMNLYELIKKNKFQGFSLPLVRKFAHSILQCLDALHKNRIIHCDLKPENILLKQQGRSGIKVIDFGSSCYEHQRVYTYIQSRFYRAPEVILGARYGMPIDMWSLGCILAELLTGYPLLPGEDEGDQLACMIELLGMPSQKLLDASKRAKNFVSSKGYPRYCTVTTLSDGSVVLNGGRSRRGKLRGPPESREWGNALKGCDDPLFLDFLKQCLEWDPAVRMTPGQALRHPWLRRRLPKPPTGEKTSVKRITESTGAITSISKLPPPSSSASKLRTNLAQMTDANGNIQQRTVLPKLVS
UniProt P29317, whole entry: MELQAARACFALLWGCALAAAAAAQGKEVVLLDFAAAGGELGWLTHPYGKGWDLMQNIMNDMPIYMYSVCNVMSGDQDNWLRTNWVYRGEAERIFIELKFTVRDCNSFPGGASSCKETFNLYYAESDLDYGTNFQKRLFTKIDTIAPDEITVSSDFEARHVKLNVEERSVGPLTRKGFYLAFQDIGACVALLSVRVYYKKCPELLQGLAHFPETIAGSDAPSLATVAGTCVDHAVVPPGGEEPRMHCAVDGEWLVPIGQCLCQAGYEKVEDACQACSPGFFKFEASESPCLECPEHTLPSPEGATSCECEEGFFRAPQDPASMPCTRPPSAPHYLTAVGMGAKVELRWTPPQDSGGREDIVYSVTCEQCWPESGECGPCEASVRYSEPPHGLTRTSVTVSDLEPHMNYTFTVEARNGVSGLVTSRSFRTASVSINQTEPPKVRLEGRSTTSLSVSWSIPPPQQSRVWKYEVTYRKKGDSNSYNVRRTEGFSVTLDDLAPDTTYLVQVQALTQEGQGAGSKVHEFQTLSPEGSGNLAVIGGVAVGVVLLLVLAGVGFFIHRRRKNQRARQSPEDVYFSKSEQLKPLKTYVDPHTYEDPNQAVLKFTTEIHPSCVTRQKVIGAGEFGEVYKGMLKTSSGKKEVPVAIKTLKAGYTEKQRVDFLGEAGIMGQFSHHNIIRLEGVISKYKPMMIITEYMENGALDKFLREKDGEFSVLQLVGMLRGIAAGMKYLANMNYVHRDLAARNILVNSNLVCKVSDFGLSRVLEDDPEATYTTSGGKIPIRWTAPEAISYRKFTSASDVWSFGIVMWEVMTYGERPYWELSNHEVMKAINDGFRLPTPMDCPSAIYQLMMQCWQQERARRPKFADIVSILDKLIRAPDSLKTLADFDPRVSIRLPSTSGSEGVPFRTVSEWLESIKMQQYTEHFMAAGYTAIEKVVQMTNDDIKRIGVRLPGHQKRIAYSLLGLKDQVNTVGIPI
UniProt P21860, whole entry: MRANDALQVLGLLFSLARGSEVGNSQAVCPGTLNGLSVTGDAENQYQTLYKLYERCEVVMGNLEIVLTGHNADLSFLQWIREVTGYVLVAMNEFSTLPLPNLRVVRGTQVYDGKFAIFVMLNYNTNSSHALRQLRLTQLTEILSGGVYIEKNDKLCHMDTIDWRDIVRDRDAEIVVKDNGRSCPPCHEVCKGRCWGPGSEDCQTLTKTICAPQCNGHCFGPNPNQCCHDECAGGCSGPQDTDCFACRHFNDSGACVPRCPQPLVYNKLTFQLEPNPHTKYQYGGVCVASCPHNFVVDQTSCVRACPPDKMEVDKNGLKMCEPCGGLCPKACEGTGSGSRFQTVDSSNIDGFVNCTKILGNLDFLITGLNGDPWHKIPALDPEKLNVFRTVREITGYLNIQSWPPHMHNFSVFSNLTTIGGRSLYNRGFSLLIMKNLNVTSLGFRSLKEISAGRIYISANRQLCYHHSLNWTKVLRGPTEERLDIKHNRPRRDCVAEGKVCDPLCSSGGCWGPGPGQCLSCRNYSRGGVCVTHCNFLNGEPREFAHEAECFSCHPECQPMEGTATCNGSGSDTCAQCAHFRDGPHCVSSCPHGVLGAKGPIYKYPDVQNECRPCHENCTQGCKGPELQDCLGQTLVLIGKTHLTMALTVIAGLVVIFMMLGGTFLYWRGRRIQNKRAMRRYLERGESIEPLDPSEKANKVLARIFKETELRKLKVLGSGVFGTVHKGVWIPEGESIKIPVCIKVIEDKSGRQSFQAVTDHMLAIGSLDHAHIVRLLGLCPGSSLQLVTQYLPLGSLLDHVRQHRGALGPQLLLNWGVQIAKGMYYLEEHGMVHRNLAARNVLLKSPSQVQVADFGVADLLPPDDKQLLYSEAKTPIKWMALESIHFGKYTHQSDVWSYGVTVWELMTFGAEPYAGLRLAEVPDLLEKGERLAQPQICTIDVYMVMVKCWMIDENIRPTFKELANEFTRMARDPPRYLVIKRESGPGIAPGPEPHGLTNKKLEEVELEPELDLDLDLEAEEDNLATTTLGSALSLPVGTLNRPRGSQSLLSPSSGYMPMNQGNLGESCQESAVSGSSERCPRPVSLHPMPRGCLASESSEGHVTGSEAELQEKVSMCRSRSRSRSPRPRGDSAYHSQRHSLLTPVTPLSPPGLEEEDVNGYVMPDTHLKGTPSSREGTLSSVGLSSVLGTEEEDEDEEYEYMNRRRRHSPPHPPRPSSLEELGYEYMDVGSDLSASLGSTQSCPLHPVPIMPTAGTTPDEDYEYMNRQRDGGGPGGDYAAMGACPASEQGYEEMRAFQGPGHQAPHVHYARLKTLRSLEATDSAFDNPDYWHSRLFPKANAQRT

Measured: kinase-Nluc reporter destabilization hit call

C=C[C@H]1CN2CC[C@]3(C(=O)Nc4ccccc43)[C@@H]2C[C@@H]1/C(=C\OC)C(=O)OC [Corynoxeine] (2 µM)
inactive: CDK7 = 0 | CDK9 = 0 | CHEK2 = 0 | CSF1R 0 | CSK 0 | CSNK1A1 = 0 | CSNK1D 0 | DDR1 = 0 | DYRK1B 0 | DYRK2 = 0 | EGFR 0 | EGFR_G719S 0 | EGFR_G719S_T790M 0 | EGFR_L718V 0 | EGFR_L858R 0 | EGFR_L861Q 0 | EGFR_T790M 0 | EPHA2 = 0 | ERBB3 = 0 | [1] 0

Cc1ccccc1-n1c(Cn2cnc3c(N)ncnc32)nc2cccc(C)c2c1=O (10 µM)
inactive: CDK7 = 0 | CDK9 = 0 | CHEK2 = 0 | CSF1R 0 | CSK 0 | CSNK1A1 = 0 | CSNK1D 0 | DDR1 = 0 | DYRK1B 0 | DYRK2 = 0 | EGFR 0 | EGFR_G719S 0 | EGFR_G719S_T790M 0 | EGFR_L718V 0 | EGFR_L858R 0 | EGFR_L861Q 0 | EGFR_T790M 0 | EPHA2 = 0 | ERBB3 = 0 | [1] 0

O=C1C=CC[C@@H]2[C@H]3CCCN4CCC[C@@H](CN12)[C@@H]34 [Sophocarpine] (10 µM)
inactive: CDK7 = 0 | CDK9 = 0 | CHEK2 = 0 | CSF1R 0 | CSK 0 | CSNK1A1 = 0 | CSNK1D 0 | DDR1 = 0 | DYRK1B 0 | DYRK2 = 0 | EGFR 0 | EGFR_G719S 0 | EGFR_G719S_T790M 0 | EGFR_L718V 0 | EGFR_L858R 0 | EGFR_L861Q 0 | EGFR_T790M 0 | EPHA2 = 0 | ERBB3 = 0 | [1] 0

CCCCNc1nc(N)c2[nH]c(=O)n(Cc3ccc(C)nc3)c2n1 (10 µM)
inactive: CDK7 = 0 | CDK9 = 0 | CHEK2 = 0 | CSF1R 0 | CSK 0 | CSNK1A1 = 0 | CSNK1D 0 | DDR1 = 0 | DYRK1B 0 | DYRK2 = 0 | EGFR 0 | EGFR_G719S 0 | EGFR_G719S_T790M 0 | EGFR_L718V 0 | EGFR_L858R 0 | EGFR_L861Q 0 | EGFR_T790M 0 | EPHA2 = 0 | ERBB3 = 0 | [1] 0

O=C(N[C@@H](COc1ccc2[nH]c(=O)[nH]c2c1)c1ccccc1)c1cccn(Cc2ccc(F)c(F)c2)c1=O (2.5 µM)
inactive: CDK7 = 0 | CDK9 = 0 | CHEK2 = 0 | CSF1R 0 | CSK 0 | CSNK1A1 = 0 | CSNK1D 0 | DDR1 = 0 | DYRK1B 0 | DYRK2 = 0 | EGFR 0 | EGFR_G719S 0 | EGFR_G719S_T790M 0 | EGFR_L718V 0 | EGFR_L858R 0 | EGFR_L861Q 0 | EGFR_T790M 0 | EPHA2 = 0 | ERBB3 = 0 | [1] 0

O=C(O)c1nn(Cc2ccc(Cl)cc2Cl)c2ccccc12 [Lonidamine] (10 µM)
inactive: CDK7 = 0 | CDK9 = 0 | CHEK2 = 0 | CSF1R 0 | CSK 0 | CSNK1A1 = 0 | CSNK1D 0 | DDR1 = 0 | DYRK1B 0 | DYRK2 = 0 | EGFR 0 | EGFR_G719S 0 | EGFR_G719S_T790M 0 | EGFR_L718V 0 | EGFR_L858R 0 | EGFR_L861Q 0 | EGFR_T790M 0 | EPHA2 = 0 | ERBB3 = 0 | [1] 0

O=c1ccc2cc(O[C@@H]3O[C@H](CO)[C@@H](O)[C@H](O)[C@H]3O)c(O)cc2o1 [Esculin] (10 µM)
inactive: CDK7 = 0 | CDK9 = 0 | CHEK2 = 0 | CSF1R 0 | CSK 0 | CSNK1A1 = 0 | CSNK1D 0 | DDR1 = 0 | DYRK1B 0 | DYRK2 = 0 | EGFR 0 | EGFR_G719S 0 | EGFR_G719S_T790M 0 | EGFR_L718V 0 | EGFR_L858R 0 | EGFR_L861Q 0 | EGFR_T790M 0 | EPHA2 = 0 | ERBB3 = 0 | [1] 0

CCCCCCCCCCCCCCCCOC[C@H](COP(=O)([O-])OCC[N+](C)(C)C)OC(C)=O (10 µM)
inactive: CDK7 = 0 | CDK9 = 0 | CHEK2 = 0 | CSF1R 0 | CSK 0 | CSNK1A1 = 0 | CSNK1D 0 | DDR1 = 0 | DYRK1B 0 | DYRK2 = 0 | EGFR 0 | EGFR_G719S 0 | EGFR_G719S_T790M 0 | EGFR_L718V 0 | EGFR_L858R 0 | EGFR_L861Q 0 | EGFR_T790M 0 | EPHA2 = 0 | ERBB3 = 0 | [1] 0

O=c1[nH]c2ccccc2n1C1CCN(CCCC(c2ccc(F)cc2)c2ccc(F)cc2)CC1 [Pimozide] (2.5 µM)
inactive: CDK7 = 0 | CDK9 = 0 | CHEK2 = 0 | CSF1R 0 | CSK 0 | CSNK1A1 = 0 | CSNK1D 0 | DDR1 = 0 | DYRK1B 0 | DYRK2 = 0 | EGFR 0 | EGFR_G719S 0 | EGFR_G719S_T790M 0 | EGFR_L718V 0 | EGFR_L858R 0 | EGFR_L861Q 0 | EGFR_T790M 0 | EPHA2 = 0 | ERBB3 = 0 | [1] 0

COc1ccc2c(c1OC)C(OC)N(C)c1c-2ccc2cc3c(cc12)OCO3 (stereo not given) [Angoline] (10 µM)
inactive: CDK7 = 0 | CDK9 = 0 | CHEK2 = 0 | CSF1R 0 | CSK 0 | CSNK1A1 = 0 | CSNK1D 0 | DDR1 = 0 | DYRK1B 0 | DYRK2 = 0 | EGFR 0 | EGFR_G719S 0 | EGFR_G719S_T790M 0 | EGFR_L718V 0 | EGFR_L858R 0 | EGFR_L861Q 0 | EGFR_T790M 0 | EPHA2 = 0 | ERBB3 = 0 | [1] 0

C[S+]([O-])/C=C/CCN=C=S (stereo not given) [Sulforaphene] (10 µM)
inactive: CDK7 = 0 | CDK9 = 0 | CHEK2 = 0 | CSF1R 0 | CSK 0 | CSNK1A1 = 0 | CSNK1D 0 | DDR1 = 0 | DYRK1B 0 | DYRK2 = 0 | EGFR 0 | EGFR_G719S 0 | EGFR_G719S_T790M 0 | EGFR_L718V 0 | EGFR_L858R 0 | EGFR_L861Q 0 | EGFR_T790M 0 | EPHA2 = 0 | ERBB3 = 0 | [1] 0
